No constants are given. Whether binding was seen depends on the method and setting. Binding seen in cells or lysates may run through a third protein. A yes stands for co-enrichment or nearness to the bait. Other partners may have been found. Sequences can lack the tags named with a protein.
T1: ERECTA-HA-TbID fusion protein (Arabidopsis thaliana) (UniProt Q42371)
T1 sequence: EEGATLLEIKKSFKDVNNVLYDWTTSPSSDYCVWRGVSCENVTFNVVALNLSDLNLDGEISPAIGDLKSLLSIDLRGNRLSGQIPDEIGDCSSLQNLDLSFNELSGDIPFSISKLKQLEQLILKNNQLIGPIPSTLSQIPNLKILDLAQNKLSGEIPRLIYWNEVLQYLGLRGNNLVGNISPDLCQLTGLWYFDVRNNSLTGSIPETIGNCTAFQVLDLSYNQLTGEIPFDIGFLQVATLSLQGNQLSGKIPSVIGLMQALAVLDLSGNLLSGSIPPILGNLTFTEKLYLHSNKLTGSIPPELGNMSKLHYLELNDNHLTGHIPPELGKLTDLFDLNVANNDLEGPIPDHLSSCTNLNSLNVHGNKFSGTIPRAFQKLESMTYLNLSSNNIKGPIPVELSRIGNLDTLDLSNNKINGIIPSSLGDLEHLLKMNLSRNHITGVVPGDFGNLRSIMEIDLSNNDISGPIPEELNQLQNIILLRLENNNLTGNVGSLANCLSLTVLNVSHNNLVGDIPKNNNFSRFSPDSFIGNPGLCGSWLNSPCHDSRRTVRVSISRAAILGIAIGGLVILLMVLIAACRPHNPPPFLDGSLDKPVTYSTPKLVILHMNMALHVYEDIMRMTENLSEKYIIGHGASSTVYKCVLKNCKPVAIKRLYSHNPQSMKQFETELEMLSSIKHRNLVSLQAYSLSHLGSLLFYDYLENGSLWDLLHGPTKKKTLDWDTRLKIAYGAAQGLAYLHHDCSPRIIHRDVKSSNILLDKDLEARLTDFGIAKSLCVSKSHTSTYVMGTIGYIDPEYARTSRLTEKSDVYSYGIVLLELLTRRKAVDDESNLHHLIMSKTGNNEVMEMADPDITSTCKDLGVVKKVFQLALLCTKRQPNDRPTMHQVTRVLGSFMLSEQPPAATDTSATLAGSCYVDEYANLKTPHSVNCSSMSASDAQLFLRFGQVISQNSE

Sequences of proteins named here, by UniProt entry; tags and fusion partners are left off. Residues count along the entry.
UniProt Q9LX66, residues 25-830: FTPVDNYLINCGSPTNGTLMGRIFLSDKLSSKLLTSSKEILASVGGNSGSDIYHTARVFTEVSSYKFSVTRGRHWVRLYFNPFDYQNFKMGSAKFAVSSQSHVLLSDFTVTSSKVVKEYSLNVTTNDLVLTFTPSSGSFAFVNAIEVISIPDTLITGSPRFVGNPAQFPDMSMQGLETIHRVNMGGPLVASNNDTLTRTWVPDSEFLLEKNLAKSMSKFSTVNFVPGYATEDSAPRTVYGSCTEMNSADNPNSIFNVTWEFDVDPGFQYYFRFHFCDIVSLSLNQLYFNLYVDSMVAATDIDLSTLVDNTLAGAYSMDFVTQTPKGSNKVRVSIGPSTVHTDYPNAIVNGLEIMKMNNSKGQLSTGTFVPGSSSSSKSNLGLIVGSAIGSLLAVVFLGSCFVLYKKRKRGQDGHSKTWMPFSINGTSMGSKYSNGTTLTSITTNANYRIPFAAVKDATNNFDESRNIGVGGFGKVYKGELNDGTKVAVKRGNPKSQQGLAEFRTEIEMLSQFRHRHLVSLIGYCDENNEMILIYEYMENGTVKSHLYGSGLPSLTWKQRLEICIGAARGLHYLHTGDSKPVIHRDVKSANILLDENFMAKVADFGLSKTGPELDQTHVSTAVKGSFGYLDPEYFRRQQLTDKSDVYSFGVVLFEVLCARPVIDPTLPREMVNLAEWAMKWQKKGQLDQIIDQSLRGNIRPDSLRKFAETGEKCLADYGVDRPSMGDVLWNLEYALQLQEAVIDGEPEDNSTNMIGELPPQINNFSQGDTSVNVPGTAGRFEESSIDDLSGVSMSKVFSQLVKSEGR


Assays:
[1] = target: T1, ERECTA-HA-TbID fusion protein (Arabidopsis thaliana); assay: proximity labelling; TbID-PL: ERECTA-HA-TbID seedlings, 50 μM biotin 1 hour at room temperature; biotinylated proteins on streptavidin magnetic beads, LC-MS; ERECTA-HA-TbID vs er-105
[2] = target: T1, ERECTA-HA-TbID fusion protein (Arabidopsis thaliana); assay: proximity labelling; ERECTA membrane TbID-PL: microsomal fractionation, microsomal versus cytosolic fractions
[3] = target: T1, ERECTA-HA-TbID fusion protein (Arabidopsis thaliana); assay: proximity labelling; optimized TbID-PL: ERECTA-HA-TbID seedlings with biotin (1 hour) compared to mock treated control (without biotin, 1 hour)
[4] = target: T1, ERECTA-HA-TbID fusion protein (Arabidopsis thaliana); assay: as above; remark: listed apart in the source
[5] = target: T1, ERECTA-HA-TbID fusion protein (Arabidopsis thaliana); assay: affinity purification with mass spectrometry; ET-AP: extract of 5-day-old ERECTApro::ERECTA-HA-TbID er-105 seedlings on anti-HA magnetic beads, 4°C 18 hours, lysis buffer with 150 mM NaCl and 1% Triton X-100; enrichment against control; three biological replicates
[6] = target: T1, ERECTA-HA-TbID fusion protein (Arabidopsis thaliana); assay: proximity labelling; TbID-PL: ERECTA-HA-TbID seedlings, 50 μM biotin 1 hour at room temperature; biotinylated proteins on streptavidin magnetic beads, LC-MS; ERECTA-HA-TbID vs er-105; remark: listed apart in the source

Row | Molecule | binding [1] | binding [2] | binding [3] | further results
1 | PICALM3 (endogenous) | binds |  |  | 
2 | PICALM4A (endogenous) | binds | binds | binds | 
3 | BRASSINOSTEROID-… KINASE 1 (BSK1) (from UniProt Q944A7 1-512) (enzyme) |  | binds |  | 
4 | YODA (MAPKKK4) (enzyme, UniProt Q9CAD5 1-883) MPWWSKSKDEKKKTNKESIIDAFNRKLGFASEDRSSGRSRKSRRRRDEIVSERGAISRLPSRSPSPSTRVSRCQSFAERSPAVPLPRPIVRPHVTSTDSGMNGSQRPGLDANLKPSWLPLPKPHGATSIPDNTGAEPDFATASVSSGSSVGDIPSDSLLSPLASDCENGNRTPVNISSRDQSMHSNKNSAEMFKPVPNKNRILSASPRRRPLGTHVKNLQIPQRDLVLCSAPDSLLSSPSRSPMRSFIPDQVSNHGLLISKPYSDVSLLGSGQCSSPGSGYNSGNNSIGGDMATQLFWPQSRCSPECSPVPSPRMTSPGPSSRIQSGAVTPLHPRAGGSTTGSPTRRLDDNRQQSHRLPLPPLLISNTCPFSPTYSAATSPSVPRSPARAEATVSPGSRWKKGRLLGMGSFGHVYLGFNSESGEMCAMKEVTLCSDDPKSRESAQQLGQEISVLSRLRHQNIVQYYGSETVDDKLYIYLEYVSGGSIYKLLQEYGQFGENAIRNYTQQILSGLAYLHAKNTVHRDIKGANILVDPHGRVKVADFGMAKHITAQSGPLSFKGSPYWMAPEVIKNSNGSNLAVDIWSLGCTVLEMATTKPPWSQYEGVPAMFKIGNSKELPDIPDHLSEEGKDFVRKCLQRNPANRPTAAQLLDHAFVRNVMPMERPIVSGEPAEAMNVASSTMRSLDIGHARSLPCLDSEDATNYQQKGLKHGSGFSISQSPRNMSCPISPVGSPIFHSHSPHISGRRSPSPISSPHALSGSSTPLTGCGGAIPFHHQRQTTVNFLHEGIGSSRSPGSGGNFYTNSFFQEPSRQQDRSRSSPRTPPHVFWDNNGSIQPGYNWNKDNQPVLSDHVSQQLLSEHLKLKSLDLRPGFSTPGSTNRGP |  |  |  | binding [4]: binds
5 | auxin efflux transporter PIN3 (protein, UniProt Q9S7Z8 1-640) MISWHDLYTVLTAVIPLYVAMILAYGSVRWWKIFSPDQCSGINRFVAIFAVPLLSFHFISTNNPYAMNLRFIAADTLQKIIMLSLLVLWANFTRSGSLEWSITIFSLSTLPNTLVMGIPLLIAMYGEYSGSLMVQIVVLQCIIWYTLLLFLFEFRGAKMLIMEQFPETAASIVSFKVESDVVSLDGHDFLETDAEIGDDGKLHVTVRKSNASRRSFCGPNMTPRPSNLTGAEIYSLSTTPRGSNFNHSDFYNMMGFPGGRLSNFGPADMYSVQSSRGPTPRPSNFEENCAMASSPRFGYYPGGGAGSYPAPNPEFSSTTTSTANKSVNKNPKDVNTNQQTTLPTGGKSNSHDAKELHMFVWSSNGSPVSDRAGLNVFGGAPDNDQGGRSDQGAKEIRMLVPDQSHNGETKAVAHPASGDFGGEQQFSFAGKEEEAERPKDAENGLNKLAPNSTAALQSKTGLGGAEASQRKNMPPASVMTRLILIMVWRKLIRNPNTYSSLIGLIWALVAFRWHVAMPKIIQQSISILSDAGLGMAMFSLGLFMALQPKLIACGNSVATFAMAVRFLTGPAVMAVAAIAIGLRGDLLRVAIVQAALPQGIVPFVFAKEYNVHPAILSTGVIFGMLIALPITLVYYILLGL |  |  |  | binding [5]: binds; binding [6]: binds
6 | TOO MANY MOUTHS (TMM) (receptor, UniProt Q9SSD1 24-496) FTVITSDSTAPSALIDGPQTGFTMTNDGARTEPDEQDAVYDIMRATGNDWAAAIPDVCRGRWHGIECMPDQDNVYHVVSLSFGALSDDTAFPTCDPQRSYVSESLTRLKHLKALFFYRCLGRAPQRIPAFLGRLGSSLQTLVLRENGFLGPIPDELGNLTNLKVLDLHKNHLNGSIPLSFNRFSGLRSLDLSGNRLTGSIPGFVLPALSVLDLNQNLLTGPVPPTLTSCGSLIKIDLSRNRVTGPIPESINRLNQLVLLDLSYNRLSGPFPSSLQGLNSLQALMLKGNTKFSTTIPENAFKGLKNLMILVLSNTNIQGSIPKSLTRLNSLRVLHLEGNNLTGEIPLEFRDVKHLSELRLNDNSLTGPVPFERDTVWRMRRKLRLYNNAGLCVNRDSDLDDAFGSKSGSTVRLCDAETSRPAPSGTVQHLSREEDGALPDGATDVSSTSKSLGFSYLSAFFLVFPNFIFMLISS |  |  |  | binding [5]: binds
7 | BRI1-ASSOCIATED KINASE1/SOMATIC EMBRYOGENESIS RECEPTOR KINASE3 (BAK1/SERK3) (receptor, UniProt Q94F62 26-615) NAEGDALSALKNSLADPNKVLQSWDATLVTPCTWFHVTCNSDNSVTRVDLGNANLSGQLVMQLGQLPNLQYLELYSNNITGTIPEQLGNLTELVSLDLYLNNLSGPIPSTLGRLKKLRFLRLNNNSLSGEIPRSLTAVLTLQVLDLSNNPLTGDIPVNGSFSLFTPISFANTKLTPLPASPPPPISPTPPSPAGSNRITGAIAGGVAAGAALLFAVPAIALAWWRRKKPQDHFFDVPAEEDPEVHLGQLKRFSLRELQVASDNFSNKNILGRGGFGKVYKGRLADGTLVAVKRLKEERTQGGELQFQTEVEMISMAVHRNLLRLRGFCMTPTERLLVYPYMANGSVASCLRERPESQPPLDWPKRQRIALGSARGLAYLHDHCDPKIIHRDVKAANILLDEEFEAVVGDFGLAKLMDYKDTHVTTAVRGTIGHIAPEYLSTGKSSEKTDVFGYGVMLLELITGQRAFDLARLANDDDVMLLDWVKGLLKEKKLEALVDVDLQGNYKDEEVEQLIQVALLCTQSSPMERPKMSEVVRMLEGDGLAERWEEWQKEEMFRQDFNYPTHHPAVSGWIIGDSTSQIENEYPSGPR |  |  |  | binding [4]: binds
8 | auxin efflux transporter PIN7 (protein, UniProt Q940Y5 1-619) MITWHDLYTVLTAVIPLYVAMILAYGSVRWWKIFSPDQCSGINRFVAIFAVPLLSFHFISSNNPYAMNLRFIAADTLQKLIMLTLLIIWANFTRSGSLEWSITIFSLSTLPNTLVMGIPLLIAMYGEYSGSLMVQIVVLQCIIWYTLLLFLFEYRGAKILIMEQFPETGASIVSFKVESDVVSLDGHDFLETDAQIGDDGKLHVTVRKSNASRRSFYGGGGTNMTPRPSNLTGAEIYSLNTTPRGSNFNHSDFYSMMGFPGGRLSNFGPADMYSVQSSRGPTPRPSNFEESCAMASSPRFGYYPGGAPGSYPAPNPEFSTGNKTGSKAPKENHHHVGKSNSNDAKELHMFVWGSNGSPVSDRAGLQVDNGANEQVGKSDQGGAKEIRMLISDHTQNGENKAGPMNGDYGGEEESERVKEVPNGLHKLRCNSTAELNPKEAIETGETVPVKHMPPASVMTRLILIMVWRKLIRNPNTYSSLIGLIWALVAFRWDVAMPKIIQQSISILSDAGLGMAMFSLGLFMALQPKLIACGNSTATFAMAVRFFTGPAVMAVAAMAIGLRGDLLRVAIVQAALPQGIVPFVFAKEYNVHPAILSTGVIFGMLIALPITLVYYILLGL |  |  |  | binding [5]: binds; binding [6]: binds

Continued, in another order:

Row | binding [1] | binding [2] | binding [3] | Molecule | further results
9 | binds | binds | binds | PICALM4B (endogenous) | 
10 | binds | binds | binds | LIK1 (receptor) | 
11 | binds | binds | binds | HERK1 (from UniProt Q9LX66 25-830) (receptor) | 

Source: paper PMC13015889
